# Source: PubChem BioAssay AID1347076 (National Center for Advancing Translational Sciences (NCATS), 2019)
# Out of some 400,000 compounds screened, about 13,000 (3.2%) were called active. The inconclusive results got no clear call from the source; some entries with a clear call stand among them for comparison. Calls follow the shape of the dose curve; as a rule, active = well fitted cell-killing curve with a large enough effect; inconclusive = small, poorly fitted or top-dose-only effect, or effect the other way; inactive = flat fitted curve, though single readings scatter. Where the call is inconclusive, the potency comes from a doubtful curve fit.
# Experiment: qHTS assay for MDR1-selective chemotherapeutics: Primary screen using the drug-selected MDR subline cells KB-V1; also: nearly all actives have a fitted effect of over 60% in size
# Conditions: KB-V1 MDR cells viability, CellTiter-Glo, 72 h; activity change, negative = cytotoxicity: at 46.1 µM (top of the series)
# Outline: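 Luminescent ATP read-out (CellTiter-Glo, 10 min) measures survival of drug-selected KB-V1 MDR cells after 72 h, 37 degrees C compound exposure. Medium: phenol-red-free DMEM, 10% FBS. Values from fitted concentration-response curves.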
# % is scaled to controls: 0 for no effect and ±100 for the full control effect; potency is read from the fitted curve at half-maximal effect.
Compound,Potency,"activity change, negative = cytotoxicity"
COc1cccc(CN(CC2CCCO2)S(=O)(=O)c2ccc(S(=O)(=O)N(C)C)cc2)c1 (stereo unspecified),"inconclusive: 29.1 µM [cytotoxic, single point]",–
Fc1cccc(Cl)c1/C=N/Nc1c(Cl)cncc1Cl,"inconclusive: 18.4 µM [cytotoxic, partial curve, poor fit]",–
CCOc1ccc(NC(=O)N2CCC(n3nnc4ccccc43)CC2)cc1,–,inactive: -9.02%
O=C(c1cccs1)N1CCCC(c2nc(-c3ccc(F)cc3)no2)C1 (stereo unspecified),"inconclusive: 29.1 µM [cytotoxic, single point]",–
COc1ccc(C2=C/C(=C\c3ccccc3OC(C)=O)C(=O)O2)cc1,–,inactive: 2.07%
Cc1ccc(-c2noc(C3CCCN(C(=O)c4c(F)cccc4F)C3)n2)cc1 (stereo unspecified),active: 16.4 µM,–
Oc1ccc(-c2onc(C(F)(F)F)c2-c2cscn2)c(O)c1,"inconclusive: 16.4 µM [cytotoxic, partial curve, poor fit]",–
COc1cccc(/C=N/NC(=O)Cn2cnc3c2c(=O)n(C)c(=O)n3C)c1,"inconclusive: 9.2 µM [rising, partial curve, poor fit]",–
COCCOC(=O)C1=C(C)OC(N)=C(C#N)C1c1cc2cccc(C)c2nc1Cl (stereo unspecified),–,inactive: 20.2%
C[C@H](CO)N1C[C@H](C)[C@@H](CN(C)S(=O)(=O)c2ccc(-n3cccn3)cc2)OCc2cn(nn2)CCCC1=O,–,inactive: -10.2%
O=C(N/N=C/C(Br)=C/c1ccccc1)C(O)c1ccccc1 (stereo unspecified),"inconclusive: 23.1 µM [rising, partial curve, poor fit]",–
CC(=O)Nc1ccc(NC(=O)c2cc3c(=O)n(Cc4cccnc4)ccc3nc2C)cc1,–,inactive: 11.5%
O=c1cnnc(Nc2ccc(Cl)c(C(F)(F)F)c2)[nH]1,"inconclusive: 10.3 µM [cytotoxic, partial curve, poor fit]",–
COc1ccc(C2=NN(S(=O)(=O)c3ccccc3)C(c3ccccc3)C2)cc1 (stereo unspecified),"inconclusive: 20.6 µM [cytotoxic, single point]",–
Nc1nc(N)c2cc([N+](=O)[O-])ccc2n1,–,inactive: -16.2%
Cc1c(C(=O)OC2CCCC2C)[nH]c2c1C(=O)CCC2 (stereo unspecified),"inconclusive: 29.1 µM [cytotoxic, single point]",–
CCC1N=C(SC)NC(C)=C1C(=O)c1ccccc1 (stereo unspecified),–,inactive: -4.51%
O=S(=O)(c1ccc(OC(F)(F)F)cc1)N1CCCC(c2ccccc2)C1 (stereo unspecified),"inconclusive: 0.366 µM [cytotoxic, full curve, poor fit]",–
CC1SCC(NC(=O)c2ccc(Cl)cc2)CS1 (stereo unspecified),"inconclusive: 20.6 µM [cytotoxic, partial curve, poor fit]",–
Cc1ccc(C(=O)NC(=S)Nc2ccccc2C(F)(F)F)cc1,–,inactive: -19.1%
C=CCn1c(SCc2c(C)noc2C)nc2ccccc2c1=O,"inconclusive: 0.0065 µM [cytotoxic, full curve, poor fit]",–
S=C(NC1CCCCC1)N1CCN(Cc2ccccc2Cl)CC1,"inconclusive: 23.1 µM [cytotoxic, single point]",–
CC(=O)c1ccc(-c2ccc(C(=O)NC3CC(C)(C)NC(C)(C)C3)o2)cc1,–,inactive: 0.309%
CCN(CC)c1ccc(S(=O)(=O)N2CCOCC2)cc1NC(=O)COC(=O)/C=C/c1ccc(O)c(OC)c1,–,inactive: -24.1%

Compound,Potency,"activity change, negative = cytotoxicity"
O=C(N/N=C/c1cn(Cc2cccc(F)c2)c2ccccc12)c1cc(O)cc(O)c1,"inconclusive: 4.11 µM [rising, partial curve]",–
COc1ccc(N2CCN(c3ccc(N4C(=O)CC(C)C4=O)cc3[N+](=O)[O-])CC2)cc1 (stereo unspecified),"inconclusive: 29.1 µM [rising, single point]",–
Cc1ccc2c(c1)c(=O)c(C(=O)c1ccccc1)cn2Cc1ccccc1F,"inconclusive: 13 µM [cytotoxic, partial curve, poor fit]",–
COc1ccc(NC(=O)Cn2c(C)csc2=O)c(OC)c1,"inconclusive: 14.6 µM [cytotoxic, partial curve, poor fit]",–
COCCN1C(=O)C(=O)/C(=C(/O)c2ccc(S(=O)(=O)N3CCCCC3)cc2)C1c1ccc(O)c(OC)c1 (stereo unspecified),–,inactive: 9.04%
COc1ccc(S(=O)(=O)N(CC(=O)Nc2ccc(OC)cc2OC)c2ccc(Cl)cc2)cc1,"inconclusive: 9.2 µM [cytotoxic, partial curve, poor fit]",–
CC(C)c1ccc(C(O)Cc2nc3ccccc3n2C)cc1 (stereo unspecified),"inconclusive: 8.2 µM [cytotoxic, partial curve, poor fit]",–
c1ccc(CSc2nnc(-c3ccccn3)n2-c2ccccc2)cc1,"inconclusive: 23.1 µM [cytotoxic, single point]",–
O=C(Nc1ccccc1F)c1c[nH]c(=O)[nH]c1=O,"inconclusive: 18.4 µM [cytotoxic, partial curve, poor fit]",–
Cc1ccc2c(c1)N(S(=O)(=O)c1ccc(CN3C(=O)c4cccnc4C3=O)cc1)CCO2,–,inactive: 2.56%
O=C1CCC(/C=C/c2ccccc2)=NN1,active: 5.17 µM,–
O=C(Nc1ccc(C(=O)N2CCN(c3ccc(Cl)cc3)CC2)cc1)C1=CSCCO1,"inconclusive: 3.66 µM [cytotoxic, full curve, poor fit]",–
CN(C)S(=O)(=O)c1ccc(C(=O)NCCN2C(=O)S/C(=C\c3cccnc3)C2=O)cc1,–,inactive: 6.72%
O=C(CSc1nnc(CNC(=O)C23CC4CC(CC(C4)C2)C3)n1-c1ccc(F)cc1)Nc1ccc(F)cc1,"inconclusive: 18.4 µM [rising, partial curve, poor fit]",–
O=C(CCN1C(=O)/C(=C/c2ccccc2)SC1=S)N1CCCCCC1,"inconclusive: 29.1 µM [cytotoxic, single point]",–
O=C(Nc1ccc(Cn2cccn2)cc1)c1ccc(COc2ccccc2Br)cc1,active: 18.4 µM,–
O=c1nc(N/N=C/c2c[nH]c3ccccc23)cn[nH]1,"inconclusive: 14.6 µM [cytotoxic, partial curve]",–
CC1(C)C(=O)Nc2ccccc2N1C(=O)COC(=O)c1cc(S(C)(=O)=O)ccc1Cl,–,inactive: 1.24%
Cn1nnnc1SCC(=O)NCCc1ccc(Cl)cc1,–,inactive: -4.72%
Cc1ccc(C(C)c2c(C)c([N+](=O)[O-])cc(C)c2[N+](=O)[O-])cn1 (stereo unspecified),–,inactive: -19.2%
COc1ccc(CNS(=O)(=O)c2ccc3oc(C(=O)O)c(C)c3c2)cc1,"inconclusive: 29.1 µM [cytotoxic, single point]",–
Cc1c(CNC2CCC(C)CC2)c(C(=O)O)c(C)n1Cc1ccccc1F (stereo unspecified),"inconclusive: 18.4 µM [rising, single point]",–
C=CCn1c(CCNC(=O)c2ccco2)nc2ccccc21,"inconclusive: 23.1 µM [cytotoxic, partial curve]",–
N#CCCN(C(=O)Nc1ccccc1)C1CCCCC1,–,inactive: 3.03%

Compound,Potency,"activity change, negative = cytotoxicity"
CN(C)S(=O)(=O)c1ccc(N2CCCC2)c(C(=O)NCc2ccc(Cl)cc2)c1,"inconclusive: 23.1 µM [cytotoxic, single point]",–
COC(=O)NC(NC(=S)Nc1ccc([N+](=O)[O-])cc1)C(Cl)(Cl)Cl (stereo unspecified),active: 20.6 µM,–
Cc1nc2ccccc2cc1C(=O)NCc1ccc(F)cc1,"inconclusive: 4.61 µM [cytotoxic, full curve]",–
C[n+]1ccnc2ccccc21,active: 10.3 µM,–
O=C(C1CCN(c2ccc(N3CCOCC3)nn2)CC1)N1CCN(c2ccc(F)cc2)CC1,"inconclusive: 7.31 µM [cytotoxic, partial curve]",–
COc1ccc(CN(C)CC(=O)NCC(=O)Nc2c(C)cccc2C)cc1,"inconclusive: 14.6 µM [cytotoxic, partial curve]",–
CC1CCCN(C(=O)C2CCN(C(=O)Nc3ccccc3)CC2)C1 (stereo unspecified),–,inactive: -3.02%
CCCN(CC(=O)Nc1ccc(F)c(F)c1F)CC(=O)Nc1c(Cl)cccc1Cl,active: 18.4 µM,–
CC(C)Oc1ccc(NC(=O)c2ccncc2)cc1,"inconclusive: 14.6 µM [cytotoxic, single point]",–
CC(C)c1ccc(OCc2cc(=O)n3c4c(sc3n2)CCCC4)cc1,–,inactive: 27.7%
CCOC(=O)C1CCN(C(=O)C2c3ccccc3C(=O)N(C)C2c2ccc(OC)cc2)CC1 (stereo unspecified),–,inactive: 0%
Cc1cccc(NC(=O)CSc2nc3ccc(NC(=O)c4cccs4)cc3s2)c1,"inconclusive: 9.2 µM [rising, partial curve]",–
CCCCNC(=S)NCc1ccc2[nH]c3c(c2c1)CCCC3,active: 20.6 µM,–
CCCc1cc(=O)[nH]c2nnc(SCC(=O)NCc3ccc4c(c3)OCO4)n12,–,inactive: 23.8%
COc1cc(/C=C/C(=O)Nc2nnc(CC(C)C)s2)cc(OC)c1OC,"inconclusive: 8.2 µM [cytotoxic, partial curve, poor fit]",–
CC(C)(C)c1ccc(-c2noc(CCC(N)=O)n2)cc1,–,inactive: -0.303%
CCc1ccc(Nc2cc(C)nc3nc(Cc4ccc(Cl)cc4)nn23)cc1,"inconclusive: 29.1 µM [cytotoxic, single point]",–
COc1ccc(C(CNC(=O)c2oc3ccccc3c2C)N2CCCC2)cc1 (stereo unspecified),"inconclusive: 10.3 µM [cytotoxic, partial curve, poor fit]",–
Cc1ccc(NC(=O)CN(C)CC(=O)Nc2ccc(F)c(F)c2F)c(Cl)c1,"inconclusive: 16.4 µM [cytotoxic, partial curve]",–
CC1CC(C)CN(CCCNC(=O)C2CCCN(S(=O)(=O)N3CC(C)CC(C)C3)C2)C1 (stereo unspecified),–,inactive: -2.33%
COCc1ccc(C(=O)N2CCCC(Nc3ccc(F)c(F)c3)C2)s1 (stereo unspecified),"inconclusive: 13 µM [cytotoxic, partial curve]",–
Cc1ccc([N+](=O)[O-])cc1NC(=O)CCCOc1ccccc1,active: 10.3 µM,–
CCCN1C(=O)c2cccc3c(N4CCCCC4)ccc(c23)C1=O,"inconclusive: 25.9 µM [cytotoxic, single point]",–
